The list shows a part of the results, in another mix than the full data. For some of these results: At the low end of the ranking, values are background and their order means little.

By UniProt entry, the sequences of proteins in these tests, tags left out. Where a name states a change or a piece, a line headed by the entry shows the natural chain unless it says otherwise.
UniProt Q01892: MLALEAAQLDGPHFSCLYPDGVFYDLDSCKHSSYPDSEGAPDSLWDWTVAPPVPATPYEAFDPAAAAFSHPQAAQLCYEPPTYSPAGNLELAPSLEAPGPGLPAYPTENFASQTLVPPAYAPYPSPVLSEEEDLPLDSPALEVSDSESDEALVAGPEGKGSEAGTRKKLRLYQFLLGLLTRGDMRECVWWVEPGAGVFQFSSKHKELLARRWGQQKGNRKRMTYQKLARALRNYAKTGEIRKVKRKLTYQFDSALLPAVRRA
UniProt Q99607: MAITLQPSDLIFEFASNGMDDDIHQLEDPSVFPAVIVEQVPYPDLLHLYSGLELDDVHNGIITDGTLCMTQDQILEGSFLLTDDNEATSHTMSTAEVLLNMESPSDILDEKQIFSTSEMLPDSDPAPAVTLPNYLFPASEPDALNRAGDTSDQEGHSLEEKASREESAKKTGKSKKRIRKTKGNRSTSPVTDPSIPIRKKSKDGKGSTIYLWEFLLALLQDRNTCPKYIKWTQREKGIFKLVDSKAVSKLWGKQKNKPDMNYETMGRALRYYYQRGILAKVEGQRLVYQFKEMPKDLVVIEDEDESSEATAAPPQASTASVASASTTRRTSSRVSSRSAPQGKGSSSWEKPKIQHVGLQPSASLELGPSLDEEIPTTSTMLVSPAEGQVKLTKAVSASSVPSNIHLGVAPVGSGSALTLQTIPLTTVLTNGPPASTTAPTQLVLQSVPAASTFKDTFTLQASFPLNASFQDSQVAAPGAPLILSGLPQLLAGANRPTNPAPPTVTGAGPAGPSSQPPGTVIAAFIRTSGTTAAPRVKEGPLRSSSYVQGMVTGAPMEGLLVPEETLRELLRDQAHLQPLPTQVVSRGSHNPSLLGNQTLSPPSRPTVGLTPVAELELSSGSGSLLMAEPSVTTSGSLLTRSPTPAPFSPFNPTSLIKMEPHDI

In one experiment the target is SPIB (UniProt Q01892). Briefly: DAPPL (digital affinity profiling via proximity ligation, sequencing). Particulars: 10 mM Tris-HCl pH 7.5, 50 mM NaCl, 1 mM DTT, 4% glycerol, room temperature, 30 min; GST-TFs on glutathione beads, 16-mer random dsDNA library, 0.1% …; high values mean tight binding; double strand, one strand shown; scale: fold enrichment (6-mer frequency, TF over GST control).
For the sequence ATGACC, the binding signal turned out to be 1.45.

CCTCAA: the binding signal turned out to be 1.42.

With CCTTGC, the binding signal was found to be 1.24.

The sequence TGCACC came in with a binding signal of 1.15.

AACTGA returned a binding signal of 1.15.

With TACTCA, the binding signal turned out to be 1.36.

As to CACCCG, the binding signal came out at 1.28.

TTACAG showed a binding signal of 1.29.

With CTTAAC, the binding signal is 1.4.

A further experiment concerns the target ELF4 (UniProt Q99607). The experiment is described as above. Particulars: 10 mM Tris-HCl pH 7.5, 50 mM NaCl, 1 mM DTT, 4% glycerol, room temperature, 30 min; GST-TFs on glutathione beads, 16-mer random dsDNA library, 0.1% …; high values mean tight binding; double strand, one strand shown; scale: fold enrichment (6-mer frequency, TF over GST control).
In turn, ATGACC gave a binding signal of 1.66.

On to CCTCAA, for which the binding signal was 1.38.

In turn, CCTTGC showed a binding signal of 1.27.

Consider TGCACC, for which the binding signal was 1.19.

As to AACTGA, the binding signal worked out at 1.05.

The sequence TACTCA returned a binding signal of 1.23.

CACCCG returned a binding signal of 1.18.

TTACAG returned a binding signal of 1.26.

In turn, CTTAAC gave a binding signal of 1.28.

The next experiment concerns the target T1, ETV2 (UniProt O00321).
T1 sequence: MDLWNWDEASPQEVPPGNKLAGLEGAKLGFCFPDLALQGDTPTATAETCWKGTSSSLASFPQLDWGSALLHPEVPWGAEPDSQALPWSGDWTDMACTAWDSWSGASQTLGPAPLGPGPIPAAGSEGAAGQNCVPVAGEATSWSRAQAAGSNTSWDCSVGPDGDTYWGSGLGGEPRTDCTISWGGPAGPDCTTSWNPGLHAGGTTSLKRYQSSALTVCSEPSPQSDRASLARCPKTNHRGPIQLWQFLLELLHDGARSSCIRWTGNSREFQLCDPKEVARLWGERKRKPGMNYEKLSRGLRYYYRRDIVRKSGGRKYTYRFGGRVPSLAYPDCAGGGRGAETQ
Described as above. Particulars: 10 mM Tris-HCl pH 7.5, 50 mM NaCl, 1 mM DTT, 4% glycerol, room temperature, 30 min; GST-TFs on glutathione beads, 16-mer random dsDNA library, 0.1% …; high values mean tight binding; double strand, one strand shown; scale: fold enrichment (6-mer frequency, TF over GST control).
Sequence AATTGA registered a binding signal of 1.18.

TGCAAG showed a binding signal of 0.968.

On to TCTCGT, for which the binding signal amounted to 1.27.

TGGTGC yielded a binding signal of 0.947.

Sequence CAACAC came in with a binding signal of 1.08.

GGTAAT registered a binding signal of 0.971.

As to CGTCTT, the binding signal is 1.29.

Sequence ATACTT registered a binding signal of 1.53.

ACTTCT had a binding signal of 1.37.

Take CCCGTC: the binding signal turned out to be 1.32.

Turning to TTACTT, the binding signal is 1.66.

GGACTC returned a binding signal of 1.01.

For TATCTG, the binding signal came out at 1.33.

Sequence CCACCT showed a binding signal of 0.913.

In turn, AGATGA yielded a binding signal of 1.17.

With GCCACT, the binding signal was determined as 1.15.

Sequence GCCCAC had a binding signal of 0.999.

In turn, ACCGGC came in with a binding signal of 0.978.

For TTTGGA, the binding signal was determined as 1.22.

Regarding CAAGTA, the binding signal turned out to be 0.981.

Turning to ACCTTC, the binding signal amounted to 1.71.

With TATGTC, the binding signal was 1.02.

In turn, CTACAC had a binding signal of 1.19.

Sequence TTTTCC yielded a binding signal of 1.88.

CGGTTC registered a binding signal of 1.39.

CTCAGT: the binding signal came to 1.2.

ATAAAG registered a binding signal of 0.956.

In turn, AGTATG displayed a binding signal of 0.999.

GCTGCG showed a binding signal of 0.876.

With GGAAGA, the binding signal was found to be 1.09.

Turning to CAGCTA, the binding signal turned out to be 0.937.

These data come from article PMC7862700.
